Laboratory results: PubChem BioAssay AID493246 (Drosophila RNAi Screening Center, 2011)

Test: 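Genes fly cells need to grow and stay alive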 (primary screen)
Cells: Drosophila Kc and S2R+ cells
Reagent: long dsRNA against Drosophila genes
Measured: 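Cell number per well after knock-down, printed as raw plate values; calls were based on per-plate z-scores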
Scale: Kc cell number and S2R+ cell number: higher = more cells remaining
Rule for the call: 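Counted as a hit if cell number falls by a z-score of at least 3 within its plate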
The deposit covers about 21,000 reagents; below is a random part of those that have a named target and a result. Over the whole deposit, 429 (2%) are marked active. 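Values are raw and not normalised between plates; calls rest on per-plate z-scores that were not deposited.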 A number with no mark means an inactive call. Not stated in the record: the amount of reagent, the time to read-out.

no.	gene	amplicon	Kc cell number, rep 1	Kc cell number, rep 2	S2R+ cell number, rep 1	S2R+ cell number, rep 2
1	IFT52	DRSC03271	1.61e6	1.75e6	1.11e6	1.18e6
2	CG14054	DRSC17909	1.48e6	1.51e6	1.08e6	1.17e6
3	Hex-A	DRSC18259	1.61e6	1.61e6	9.51e5	1.10e6
4	ZIPIC	DRSC16349	5.42e5		8.45e5	
5	dl	DRSC03520	1.27e6	1.42e6	1.23e6	1.24e6
6	dl	DRSC03521	1.47e6	1.58e6	1.26e6	1.38e6
7	5-HT2A	DRSC11990	1.61e6	1.69e6	1.33e6	1.45e6
8	ppk10	DRSC01123	1.76e6	1.82e6	1.09e6	1.28e6
9	CG32651	DRSC18941	1.08e6	1.36e6	1.06e6	1.08e6
10	CG13539	DRSC04181	1.51e6	1.60e6	1.28e6	1.39e6
11	DCTN3-p24	DRSC04592	1.31e6	1.39e6	1.12e6	1.14e6
12	mus101	DRSC19388	1.79e6	1.54e6	1.14e6	1.24e6
13	Rab40	DRSC19820	1.63e6	1.54e6	1.12e6	1.10e6
14	Nepl11	DRSC12333	1.57e6	1.60e6	1.11e6	1.15e6
15	Upf2	DRSC18218	1.59e6	1.48e6	1.06e6	1.09e6
16	CG4324	DRSC04462	1.44e6	1.50e6	1.20e6	1.34e6
17	CG18418	DRSC08535	1.44e6	1.44e6	1.28e6	1.22e6
18	PNKP	DRSC16512	1.52e6	1.63e6	1.34e6	1.45e6
19	CG1637	DRSC18865	1.33e6	1.58e6	1.08e6	1.12e6
20	CG1637	DRSC19748	5.46e5		7.90e5	
21	CG1637	DRSC19749	1.51e6	1.48e6	1.02e6	1.16e6
22	Lapsyn	DRSC04249	1.45e6	1.54e6	1.20e6	1.32e6
23	CG9215	DRSC20171	1.43e6	1.40e6	1.05e6	1.12e6
24	CG5902	DRSC15912	1.50e6	1.53e6	1.14e6	1.26e6

Entries listed so far whose target name begins with D or d (3):
gene	amplicon	Kc cell number, rep 1	Kc cell number, rep 2	S2R+ cell number, rep 1	S2R+ cell number, rep 2
dl	DRSC03520	1.27e6	1.42e6	1.23e6	1.24e6
dl	DRSC03521	1.47e6	1.58e6	1.26e6	1.38e6
DCTN3-p24	DRSC04592	1.31e6	1.39e6	1.12e6	1.14e6
